Holding throughout (assay): log2 fold change, soluble protein after heating vs DMSO (PISA); higher = thermal stabilisation; K562 lysate, 10 uM; active = over 0.2 and 3.5 SD of the protein, either way, in both replicates (recomputed)
Compound in one test: C#Cc1cccc(Nc2ncnc3cc(OCCOC)c(OCCOC)cc23)c1 [erlotinib]
The essentials: (§1)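 Quantification was by TMTpro 16plex LC-MS/MS with equalised channel sums, applied to the supernatant after 21,000xg for 90 min. Samples were crude K562 extract at 1 mg/mL protein in PBS pH 7.4 with 1 mM MgCl2, treated with 10 μM compound for 30 min, heated for 3 min across 48°C-58°C, pooled and brought to 0.5% NP-40 at 4°C. Values are log-two fold changes in thermal stability relative to solvent controls, from duplicates.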

Amino acid sequences for entries named in this document (tags omitted). A change or cut given only in a name is not applied to a line headed by its entry.
UniProt Q6NW34: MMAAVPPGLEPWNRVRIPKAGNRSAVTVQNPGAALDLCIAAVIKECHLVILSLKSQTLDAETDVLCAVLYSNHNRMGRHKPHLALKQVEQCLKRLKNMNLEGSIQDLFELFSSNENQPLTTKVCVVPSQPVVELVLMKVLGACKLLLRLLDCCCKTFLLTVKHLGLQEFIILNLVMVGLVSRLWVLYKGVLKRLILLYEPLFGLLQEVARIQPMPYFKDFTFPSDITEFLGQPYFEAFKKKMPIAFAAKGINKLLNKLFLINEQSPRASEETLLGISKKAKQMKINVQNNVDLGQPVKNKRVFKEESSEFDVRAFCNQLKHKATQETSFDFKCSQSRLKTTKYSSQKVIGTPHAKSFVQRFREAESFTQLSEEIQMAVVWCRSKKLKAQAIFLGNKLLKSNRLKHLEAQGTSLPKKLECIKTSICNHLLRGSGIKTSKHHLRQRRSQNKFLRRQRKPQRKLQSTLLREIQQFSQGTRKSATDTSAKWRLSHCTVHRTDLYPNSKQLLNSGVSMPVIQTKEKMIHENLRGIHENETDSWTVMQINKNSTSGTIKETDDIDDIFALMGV
UniProt Q9UBE8: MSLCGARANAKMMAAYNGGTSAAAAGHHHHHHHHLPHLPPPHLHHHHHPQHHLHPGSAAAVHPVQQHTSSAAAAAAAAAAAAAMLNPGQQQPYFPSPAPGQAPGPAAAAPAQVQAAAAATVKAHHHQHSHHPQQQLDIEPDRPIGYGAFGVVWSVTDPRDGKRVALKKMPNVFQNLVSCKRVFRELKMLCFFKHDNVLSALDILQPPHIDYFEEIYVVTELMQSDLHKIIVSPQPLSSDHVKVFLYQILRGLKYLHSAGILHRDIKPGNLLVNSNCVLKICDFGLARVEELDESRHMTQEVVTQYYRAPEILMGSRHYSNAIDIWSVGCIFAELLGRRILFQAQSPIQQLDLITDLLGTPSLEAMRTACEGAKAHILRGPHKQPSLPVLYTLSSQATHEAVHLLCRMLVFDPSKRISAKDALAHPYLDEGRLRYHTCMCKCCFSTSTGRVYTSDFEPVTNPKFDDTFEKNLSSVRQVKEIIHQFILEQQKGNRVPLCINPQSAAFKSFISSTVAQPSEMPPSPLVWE
UniProt Q6P3R8: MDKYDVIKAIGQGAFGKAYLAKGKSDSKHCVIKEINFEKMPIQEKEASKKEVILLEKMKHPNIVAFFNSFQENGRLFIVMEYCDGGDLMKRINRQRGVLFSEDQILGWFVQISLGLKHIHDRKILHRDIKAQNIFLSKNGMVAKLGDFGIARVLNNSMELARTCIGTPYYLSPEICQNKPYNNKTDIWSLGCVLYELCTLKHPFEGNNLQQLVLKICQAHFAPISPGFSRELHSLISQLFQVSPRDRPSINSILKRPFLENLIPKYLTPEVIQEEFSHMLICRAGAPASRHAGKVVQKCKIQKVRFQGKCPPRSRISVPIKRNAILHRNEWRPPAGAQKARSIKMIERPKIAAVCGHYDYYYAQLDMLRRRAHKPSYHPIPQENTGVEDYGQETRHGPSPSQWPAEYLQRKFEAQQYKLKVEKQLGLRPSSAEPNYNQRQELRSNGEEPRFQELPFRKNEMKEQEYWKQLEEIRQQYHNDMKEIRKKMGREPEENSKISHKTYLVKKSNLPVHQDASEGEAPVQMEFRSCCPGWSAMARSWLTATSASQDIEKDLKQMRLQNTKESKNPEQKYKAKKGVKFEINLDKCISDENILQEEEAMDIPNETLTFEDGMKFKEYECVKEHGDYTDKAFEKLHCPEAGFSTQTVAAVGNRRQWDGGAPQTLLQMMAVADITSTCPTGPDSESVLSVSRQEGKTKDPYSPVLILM
UniProt Q9NYS0: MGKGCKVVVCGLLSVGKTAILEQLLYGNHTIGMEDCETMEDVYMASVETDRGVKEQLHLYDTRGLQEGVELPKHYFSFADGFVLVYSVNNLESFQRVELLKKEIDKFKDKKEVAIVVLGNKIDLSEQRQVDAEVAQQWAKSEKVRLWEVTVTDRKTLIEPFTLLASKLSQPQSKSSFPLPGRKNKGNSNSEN
UniProt Q969S2: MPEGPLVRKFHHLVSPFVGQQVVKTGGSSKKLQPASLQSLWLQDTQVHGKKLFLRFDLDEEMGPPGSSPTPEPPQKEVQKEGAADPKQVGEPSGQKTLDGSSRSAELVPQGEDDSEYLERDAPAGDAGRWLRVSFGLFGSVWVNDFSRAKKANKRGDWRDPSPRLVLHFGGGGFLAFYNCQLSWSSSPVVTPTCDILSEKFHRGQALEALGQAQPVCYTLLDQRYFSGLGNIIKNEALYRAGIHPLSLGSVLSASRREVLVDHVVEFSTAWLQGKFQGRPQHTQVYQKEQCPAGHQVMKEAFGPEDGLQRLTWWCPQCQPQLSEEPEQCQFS
UniProt Q9NV92: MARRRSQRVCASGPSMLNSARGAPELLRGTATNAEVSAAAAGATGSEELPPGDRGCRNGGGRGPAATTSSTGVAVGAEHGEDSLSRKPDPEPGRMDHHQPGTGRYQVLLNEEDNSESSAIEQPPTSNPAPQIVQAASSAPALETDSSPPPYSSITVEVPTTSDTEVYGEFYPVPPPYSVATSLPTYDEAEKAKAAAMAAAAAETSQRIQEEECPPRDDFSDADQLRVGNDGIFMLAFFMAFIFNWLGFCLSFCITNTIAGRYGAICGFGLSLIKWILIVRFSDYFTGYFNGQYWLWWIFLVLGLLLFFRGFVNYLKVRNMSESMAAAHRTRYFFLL
UniProt O94916: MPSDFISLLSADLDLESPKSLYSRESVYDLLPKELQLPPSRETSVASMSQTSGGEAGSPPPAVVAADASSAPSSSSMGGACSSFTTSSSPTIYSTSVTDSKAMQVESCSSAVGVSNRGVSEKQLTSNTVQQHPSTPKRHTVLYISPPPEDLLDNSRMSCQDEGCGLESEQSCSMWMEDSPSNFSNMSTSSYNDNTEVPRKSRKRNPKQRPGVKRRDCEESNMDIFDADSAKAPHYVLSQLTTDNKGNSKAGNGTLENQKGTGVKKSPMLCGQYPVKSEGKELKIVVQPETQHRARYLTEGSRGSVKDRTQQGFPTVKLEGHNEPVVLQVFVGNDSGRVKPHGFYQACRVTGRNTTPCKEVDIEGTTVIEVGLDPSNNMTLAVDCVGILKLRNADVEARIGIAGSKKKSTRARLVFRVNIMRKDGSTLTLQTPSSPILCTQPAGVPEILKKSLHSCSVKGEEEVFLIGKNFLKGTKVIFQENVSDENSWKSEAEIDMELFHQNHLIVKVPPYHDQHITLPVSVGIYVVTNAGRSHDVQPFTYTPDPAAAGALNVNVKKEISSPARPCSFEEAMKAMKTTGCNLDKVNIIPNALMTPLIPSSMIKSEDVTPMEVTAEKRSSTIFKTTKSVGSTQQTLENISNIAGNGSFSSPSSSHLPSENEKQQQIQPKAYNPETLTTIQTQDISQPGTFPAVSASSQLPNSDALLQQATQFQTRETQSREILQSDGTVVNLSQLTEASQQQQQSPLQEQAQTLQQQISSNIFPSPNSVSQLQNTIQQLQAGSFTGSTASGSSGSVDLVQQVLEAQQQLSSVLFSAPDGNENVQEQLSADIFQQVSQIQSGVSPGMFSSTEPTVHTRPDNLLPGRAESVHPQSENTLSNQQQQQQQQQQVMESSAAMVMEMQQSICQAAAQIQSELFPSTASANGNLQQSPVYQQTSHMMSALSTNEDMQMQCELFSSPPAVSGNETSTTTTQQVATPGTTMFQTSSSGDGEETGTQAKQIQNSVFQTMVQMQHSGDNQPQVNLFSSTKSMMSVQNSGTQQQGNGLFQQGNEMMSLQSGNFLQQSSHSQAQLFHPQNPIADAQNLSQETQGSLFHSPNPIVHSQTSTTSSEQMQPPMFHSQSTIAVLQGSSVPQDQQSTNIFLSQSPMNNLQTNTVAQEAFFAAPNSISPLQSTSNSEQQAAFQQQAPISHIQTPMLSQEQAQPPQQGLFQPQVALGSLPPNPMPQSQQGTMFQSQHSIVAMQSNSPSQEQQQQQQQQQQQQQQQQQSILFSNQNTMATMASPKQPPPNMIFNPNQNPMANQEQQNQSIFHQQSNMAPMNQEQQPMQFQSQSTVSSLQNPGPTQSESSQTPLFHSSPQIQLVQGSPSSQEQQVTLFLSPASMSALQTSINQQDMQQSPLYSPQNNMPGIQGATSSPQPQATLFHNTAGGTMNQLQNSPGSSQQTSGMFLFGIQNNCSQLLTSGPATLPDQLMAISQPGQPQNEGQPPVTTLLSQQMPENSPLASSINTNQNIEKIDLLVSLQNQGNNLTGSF
UniProt O14524: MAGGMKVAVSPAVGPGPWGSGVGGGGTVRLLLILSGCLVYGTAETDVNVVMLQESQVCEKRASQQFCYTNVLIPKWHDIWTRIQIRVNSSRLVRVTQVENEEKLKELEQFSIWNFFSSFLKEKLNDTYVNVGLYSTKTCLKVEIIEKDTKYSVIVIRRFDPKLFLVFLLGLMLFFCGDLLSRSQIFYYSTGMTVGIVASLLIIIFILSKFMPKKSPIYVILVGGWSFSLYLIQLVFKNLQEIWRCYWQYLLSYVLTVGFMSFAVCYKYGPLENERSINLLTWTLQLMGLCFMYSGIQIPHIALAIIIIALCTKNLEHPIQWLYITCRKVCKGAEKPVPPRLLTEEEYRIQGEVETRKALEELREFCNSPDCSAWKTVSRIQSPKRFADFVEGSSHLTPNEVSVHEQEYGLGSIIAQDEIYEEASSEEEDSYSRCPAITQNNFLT
UniProt Q14494: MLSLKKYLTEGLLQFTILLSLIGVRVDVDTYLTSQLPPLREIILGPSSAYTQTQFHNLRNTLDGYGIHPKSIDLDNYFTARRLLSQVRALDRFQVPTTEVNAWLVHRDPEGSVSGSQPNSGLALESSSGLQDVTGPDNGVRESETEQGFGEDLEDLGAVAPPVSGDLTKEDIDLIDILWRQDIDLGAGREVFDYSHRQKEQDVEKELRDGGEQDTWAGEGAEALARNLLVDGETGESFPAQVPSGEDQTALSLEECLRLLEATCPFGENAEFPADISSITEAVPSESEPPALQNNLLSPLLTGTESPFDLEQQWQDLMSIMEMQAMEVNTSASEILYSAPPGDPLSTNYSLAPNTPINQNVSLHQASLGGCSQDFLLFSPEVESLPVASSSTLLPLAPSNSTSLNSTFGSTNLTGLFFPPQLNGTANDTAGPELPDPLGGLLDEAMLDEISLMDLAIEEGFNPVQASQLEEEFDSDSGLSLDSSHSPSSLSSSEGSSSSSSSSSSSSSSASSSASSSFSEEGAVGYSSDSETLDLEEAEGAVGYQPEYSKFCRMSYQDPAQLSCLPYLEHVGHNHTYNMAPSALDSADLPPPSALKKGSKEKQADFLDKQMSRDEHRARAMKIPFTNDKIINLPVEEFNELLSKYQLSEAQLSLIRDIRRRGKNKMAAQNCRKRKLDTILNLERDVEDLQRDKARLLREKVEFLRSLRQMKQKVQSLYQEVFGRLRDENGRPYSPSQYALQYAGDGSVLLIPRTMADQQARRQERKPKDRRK
UniProt Q86SG6: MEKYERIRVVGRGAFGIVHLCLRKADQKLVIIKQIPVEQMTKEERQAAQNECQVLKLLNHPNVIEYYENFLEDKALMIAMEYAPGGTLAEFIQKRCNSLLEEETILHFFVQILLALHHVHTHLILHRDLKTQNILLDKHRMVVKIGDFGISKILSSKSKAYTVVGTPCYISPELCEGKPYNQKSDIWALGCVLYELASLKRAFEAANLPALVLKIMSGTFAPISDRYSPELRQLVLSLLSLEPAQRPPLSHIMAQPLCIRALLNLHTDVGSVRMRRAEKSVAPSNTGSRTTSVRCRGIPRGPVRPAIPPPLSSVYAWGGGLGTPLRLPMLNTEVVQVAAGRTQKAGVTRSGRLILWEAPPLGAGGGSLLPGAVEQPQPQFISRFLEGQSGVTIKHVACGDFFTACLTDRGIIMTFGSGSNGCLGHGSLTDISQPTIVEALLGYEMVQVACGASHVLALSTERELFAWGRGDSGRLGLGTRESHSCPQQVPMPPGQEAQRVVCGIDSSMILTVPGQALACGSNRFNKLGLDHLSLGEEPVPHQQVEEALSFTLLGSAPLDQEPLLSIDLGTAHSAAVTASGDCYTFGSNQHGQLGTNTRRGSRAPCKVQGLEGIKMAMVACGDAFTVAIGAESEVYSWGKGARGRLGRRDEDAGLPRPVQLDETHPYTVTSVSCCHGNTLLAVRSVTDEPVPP
UniProt Q13952: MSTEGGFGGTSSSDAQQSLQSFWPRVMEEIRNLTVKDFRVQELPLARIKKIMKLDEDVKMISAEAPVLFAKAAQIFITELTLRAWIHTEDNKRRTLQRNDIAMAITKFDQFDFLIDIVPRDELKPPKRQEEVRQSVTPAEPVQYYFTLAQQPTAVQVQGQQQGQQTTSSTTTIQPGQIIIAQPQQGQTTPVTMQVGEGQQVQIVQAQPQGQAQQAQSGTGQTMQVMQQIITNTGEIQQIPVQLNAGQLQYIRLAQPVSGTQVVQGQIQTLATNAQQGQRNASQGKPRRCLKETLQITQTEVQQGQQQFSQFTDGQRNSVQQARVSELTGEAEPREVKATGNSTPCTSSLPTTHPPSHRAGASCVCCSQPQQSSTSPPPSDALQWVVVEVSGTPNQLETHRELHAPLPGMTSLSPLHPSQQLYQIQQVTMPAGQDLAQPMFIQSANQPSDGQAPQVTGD

Compound in test [1]: C1=CC(=CC=C1C2=NC3=C(N2)C=C(C=C3)C(=O)N)OC4=CC=C(C=C4)Cl
The essentials: as §1

Compound in test [2]: CC(C)C1=C2N=C(C=C(N2N=C1)NCC3=CC=CC=C3)NCCCCCCN
The essentials:
as §1

Compound in test [3]: CC1=C(C(CC(=O)N1)C2=CC=C(C=C2)C(F)(F)F)C(=O)NC3=C(C=C4C(=C3)C=NN4)F
The essentials: as §1

Compound in test [4]: C1=CC2=NC=CN=C2C=C1/C=C/3\C(=O)NC(=O)S3
The essentials: as §1

Compound in a further test: C=CC(=O)N1CCC[C@@H](n2nc(-c3ccc(Oc4ccccc4)cc3)c3c(N)ncnc32)C1 [ibrutinib]
The essentials: as §1

Compound in test [5]: C1=CC=C(C=C1)C2=NC(=C(N2)C3=CC=NC=C3)C4=CC(=C(C=C4)Cl)O
The essentials:
as §1

Compound in test [6]: C1CCN(C1)C(=O)NC2=CC=CC(=C2)NC3=NC=C(C(=N3)NCCC4=CN=CN4)Br
The essentials: as §1

Compound in test [7]: C1CN(CCC1(CC2=CC=C(C=C2)Cl)N)C3=NC=NC4=C3C=CN4
The essentials: as §1

Compound in a further test: C1COCCN1CCN2C3=CC=CC=C3N=C2NC(=O)C4=CC(=CC=C4)[N+](=O)[O-] [IRAK-1-4 Inhibitor I]
The essentials:
as §1

Compound in test [8]: CC(=O)c1cnc2ccc(-c3cc(Cl)c(O)c(Cl)c3)nc2c1N[C@H]1CC[C@H](CN(C)C)CC1
The essentials: as §1

Compound in a further test: CC(C)(C)Cn1c(N)nc2ccc(-c3[nH]c(C(C)(C)C)nc3-c3ccc(F)cc3)nc21 [ralimetinib]
The essentials: as §1

Compound in test [9]: CC(C)(O)CC(=O)NCCn1ccc2ncnc(Nc3ccc(Oc4cccc(C(F)(F)F)c4)c(Cl)c3)c21
The essentials:
as §1

Compound in test [10]: CC1=C(C2=C(C=C1)C(=O)C3=CC=CC=C3N2CCCN)C
The essentials:
as §1

Compound in test [11]: CC1=C(C=C(C=C1)NC(=O)C2=CC(=CC=C2)C(C)(C)C#N)NC3=CC4=C(C=C3)N=CN(C4=O)C
The essentials:
as §1

Compound in test [12]: CC1=C(C=C(C=C1)NC(=O)C2=CC(=CC=C2)N(C)C)NC(=O)C3=CC=C(C=C3)O
The essentials: as §1

Compound in test [13]: CC1=CC=C(C=C1)SC2=C3C=C(SC3=CN=C2)C(=O)N
The essentials:
as §1

Compound in test [14]: C/C(=N\NC(=O)C1=CC(=CC=C1)S(=O)(=O)N2CCOCC2)/C3=C(C=CC(=C3)Cl)O
The essentials:
as §1

Compound in test [15]: C1=CC2=C(C=CC(=C2)/C=C\3/C(=O)NC(=NCC4=CC=CS4)S3)N=C1
The essentials:
as §1

Compound in test [16]: C1=CC=C2C(=C1)C3=NNC4=CC=CC(=C43)C2=O
The essentials: as §1

This is one part of the list.

As to NKAPD1 isoform 2 (UniProt Q6ZUT1), the log2 fold change was inactive: -0.032 in the test with erlotinib, inactive: 0.002 in [1], inactive: 0.025 in test [2] and inactive: -0.028 in [3].
As for NDUFA7 (UniProt M0R0N0), the log2 fold change in test [4] is inactive: -0.092; with ibrutinib, inactive: 0.
As to NEPRO (UniProt Q6NW34), the log2 fold change in the test with erlotinib is inactive: -0.029; in test [1] it was inactive: -0.024; in test [4], inactive: 0; in [5], inactive: 0.031; in test [6], inactive: 0.007; in test [7], inactive: -0.007. Moreover, the log2 fold change with IRAK-1-4 Inhibitor I was inactive: -0.101; with ibrutinib, inactive: 0.065; in [8], inactive: -0.035; with ralimetinib it was inactive: 0.086; in test [9] it was inactive: -0.053; in test [2] it was inactive: -0.001. The log2 fold change in test [3] was inactive: 0.158; in test [10], inactive: -0.015; in test [11] it was inactive: 0.02; in test [12], inactive: -0.026; in test [13], inactive: 0.018.
Consider NLK (UniProt Q9UBE8), for which the log2 fold change with erlotinib was inactive: 0.011; in [14] it was inactive: 0.295; in test [1], inactive: 0.008; in [15] it was inactive: 0.271; in test [16], inactive: -0.059; in test [2], inactive: -0.058.
Take NEK5 (UniProt Q6P3R8): the log2 fold change in test [14] is inactive: -0.018; in [15] it was inactive: 0.056; in [5], inactive: -0.013; in test [16] it was inactive: -0.018; in test [6], inactive: -0.047; in test [7], inactive: 0.015. Moreover, the log2 fold change was inactive: 0.152 with IRAK-1-4 Inhibitor I; inactive: -0.085 in test [8]; inactive: 0.203 in the test with ralimetinib; inactive: -0.122 in test [9]; inactive: 0.05 in test [3]; inactive: 0.02 in test [10]. Besides, the log2 fold change in test [12] was inactive: -0.051; in test [13], inactive: -0.001.
Consider NFATC4 isoform 2 (UniProt Q14934), for which the log2 fold change in test [14] was active: -0.627; in [15], inactive: -0.132; in test [4] it was inactive: -0.064; in test [16], inactive: -0.224; in [6], inactive: -0.07; in test [7], inactive: -0.012. Further, the log2 fold change was inactive: -0.053 in the test with ibrutinib; inactive: -0.075 in [8]; inactive: -0.067 in [3]; inactive: -0.057 in test [10]; inactive: 0.125 in [11]; inactive: -0.063 in test [13].
For the target NKIRAS1 (UniProt Q9NYS0), the log2 fold change in the test with erlotinib was inactive: -0.018; in test [14] it was inactive: -0.233; in test [1] it was inactive: 0.204; in test [15], inactive: -0.015; in test [16] it was inactive: -0.138; in test [6], inactive: 0.118. In addition, the log2 fold change was inactive: -0.122 in test [7]; inactive: -0.072 in test [8]; inactive: 0.04 in [2]; inactive: 0.149 in test [3]; inactive: -0.063 in test [10]; inactive: 0.065 in test [13].
Take NEIL2 (UniProt Q969S2): the log2 fold change was inactive: 0.087 in the test with erlotinib, inactive: 0.144 in test [1], inactive: 0.039 in test [2] and inactive: 0.143 in [3].
On to NDFIP2 (UniProt Q9NV92), for which the log2 fold change in test [5] is inactive: 0.026; with IRAK-1-4 Inhibitor I it was inactive: -0.049; with ralimetinib, inactive: -0.003; in test [9] it was inactive: -0.152; in test [3], inactive: -0.013; in test [11], inactive: -0.002. The log2 fold change in test [12] was inactive: 0.009.
With NFAT5 isoform 4 (UniProt O94916), the log2 fold change is inactive: 0.161 in test [4], inactive: -0.016 with ibrutinib and inactive: 0.088 in [11].
On the same counts, the results for NEMP1 (UniProt O14524) are inactive: -0.03, inactive: -0.079 and inactive: -0.11.
As to NFIX (UniProt Q14938), the log2 fold change in test [6] was inactive: 0.044; in test [7] it was inactive: 0.023.
In the case of NFE2L1 (UniProt Q14494), the log2 fold change was inactive: -0.043 with erlotinib; inactive: -0.068 in [14]; inactive: 0.139 in test [1]; inactive: -0.019 in test [15]; inactive: -0.152 in [5]; inactive: -0.007 in test [16]. For the same target, the log2 fold change is inactive: -0.112 in [6]; inactive: -0.088 in [7]; inactive: -0.055 in the test with IRAK-1-4 Inhibitor I; inactive: 0.202 with ralimetinib; inactive: 0.058 in test [9]; inactive: -0.076 in test [2]. Also, the log2 fold change is inactive: -0.024 in test [11] and inactive: -0.236 in test [12].
As for NEK8 (UniProt Q86SG6), the log2 fold change in the test with erlotinib is inactive: -0.102; in [14] it was inactive: -0.519; in test [1], inactive: 0.043; in test [15] it was inactive: 0.25; in [5] it was inactive: -0.072; in [16], inactive: -0.135. Also, the log2 fold change in the test with IRAK-1-4 Inhibitor I was inactive: 0.071; with ralimetinib, inactive: 0.014; in [9] it was inactive: 0.076; in test [2], inactive: 0.151; in test [3], inactive: 0.038; in test [12], inactive: 0.03.
In the case of NFYC isoform 3 (UniProt Q13952), the log2 fold change in the test with erlotinib was inactive: -0.136; in test [1], inactive: -0.153; in [2], inactive: 0.196; in [10], inactive: 0.331.

Source of the values: the supplement of paper PMC10849652.
